Results are given in words; binding and its absence hold for the method and conditions named. Binding seen in cells or lysates may run through a third protein. Here binding means that the protein was enriched with, or labelled near, the bait; the list need not be complete. For some of these results: Tags and fused reporters may be left off the sequences shown.
Assays:
[1] = biological target: T1, Sni445-FLAG (S. cerevisiae) (UniProt P53952); test: affinity purification with mass spectrometry; one-step FLAG purification of Sni445-FLAG from yeast lysate (Anti-FLAG M2 Affinity Gel, FLAG-peptide elution; 50 mM Tris-HCl pH 7.5, 100 mM NaCl, 1.5 mM MgCl2, 0.075% NP-40); label-free MS, three replicates
T1 sequence: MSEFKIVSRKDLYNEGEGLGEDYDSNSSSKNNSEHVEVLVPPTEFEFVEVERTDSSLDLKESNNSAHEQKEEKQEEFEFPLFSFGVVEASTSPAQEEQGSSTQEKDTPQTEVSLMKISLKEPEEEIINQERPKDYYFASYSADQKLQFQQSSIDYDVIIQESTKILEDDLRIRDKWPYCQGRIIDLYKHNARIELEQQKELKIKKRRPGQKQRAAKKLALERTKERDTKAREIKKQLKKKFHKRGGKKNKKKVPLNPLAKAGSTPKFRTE

The chains behind the UniProt entries cited, without tags or fusion partners.
UniProt Q12499: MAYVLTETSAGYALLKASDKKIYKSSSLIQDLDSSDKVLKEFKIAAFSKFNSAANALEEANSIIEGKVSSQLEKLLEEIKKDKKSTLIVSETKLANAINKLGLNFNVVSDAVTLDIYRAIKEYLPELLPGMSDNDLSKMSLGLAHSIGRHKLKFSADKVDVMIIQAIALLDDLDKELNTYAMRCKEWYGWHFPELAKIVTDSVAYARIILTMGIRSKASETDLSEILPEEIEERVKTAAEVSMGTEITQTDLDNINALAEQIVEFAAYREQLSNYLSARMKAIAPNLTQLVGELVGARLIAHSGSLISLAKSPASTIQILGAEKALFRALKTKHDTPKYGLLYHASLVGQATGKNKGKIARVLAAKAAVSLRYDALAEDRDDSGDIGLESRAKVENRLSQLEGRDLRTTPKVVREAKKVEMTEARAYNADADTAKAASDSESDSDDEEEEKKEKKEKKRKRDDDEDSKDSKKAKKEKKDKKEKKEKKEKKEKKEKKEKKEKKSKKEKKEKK
UniProt P39990: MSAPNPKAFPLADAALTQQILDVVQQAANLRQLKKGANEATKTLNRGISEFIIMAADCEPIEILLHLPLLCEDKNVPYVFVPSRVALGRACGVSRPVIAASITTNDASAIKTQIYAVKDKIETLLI
UniProt Q12460: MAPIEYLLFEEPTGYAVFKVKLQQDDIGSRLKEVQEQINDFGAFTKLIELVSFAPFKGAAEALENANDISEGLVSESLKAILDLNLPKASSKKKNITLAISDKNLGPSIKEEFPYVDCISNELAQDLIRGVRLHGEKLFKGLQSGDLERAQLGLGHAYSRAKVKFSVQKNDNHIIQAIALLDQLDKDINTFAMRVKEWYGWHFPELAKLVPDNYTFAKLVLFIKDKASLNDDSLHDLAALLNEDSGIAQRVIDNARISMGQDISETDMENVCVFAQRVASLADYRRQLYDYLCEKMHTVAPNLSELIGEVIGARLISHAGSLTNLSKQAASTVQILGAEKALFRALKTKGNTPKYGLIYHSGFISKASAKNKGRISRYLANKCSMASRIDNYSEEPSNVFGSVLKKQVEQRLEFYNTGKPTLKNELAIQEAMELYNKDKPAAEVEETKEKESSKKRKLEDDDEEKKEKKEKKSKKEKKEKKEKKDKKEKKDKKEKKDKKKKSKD
UniProt P15646: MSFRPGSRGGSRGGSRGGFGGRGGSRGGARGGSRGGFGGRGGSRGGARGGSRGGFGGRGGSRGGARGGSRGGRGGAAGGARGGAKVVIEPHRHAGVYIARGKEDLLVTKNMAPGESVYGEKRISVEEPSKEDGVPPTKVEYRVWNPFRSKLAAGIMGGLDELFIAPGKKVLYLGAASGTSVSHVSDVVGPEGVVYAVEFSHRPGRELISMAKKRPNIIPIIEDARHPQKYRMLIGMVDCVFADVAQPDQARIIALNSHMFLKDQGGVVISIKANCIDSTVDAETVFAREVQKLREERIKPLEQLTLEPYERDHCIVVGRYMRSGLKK

[2] = biological target: T2, Sni445-TAP (S. cerevisiae) (UniProt P53952); test: affinity purification with mass spectrometry; tandem affinity purification of chromosomally TAP-tagged baits from yeast lysate (IgG Sepharose, TEV elution, Calmodulin Sepharose, EGTA elution; 50 mM Tris-HCl pH 7.5, 100 mM NaCl, 1.5 mM MgCl2, 0.075% NP-40); label-free MS, three replicates; Pwp2-TAP and Enp1-TAP also from sni445 deletion strains
T2 sequence: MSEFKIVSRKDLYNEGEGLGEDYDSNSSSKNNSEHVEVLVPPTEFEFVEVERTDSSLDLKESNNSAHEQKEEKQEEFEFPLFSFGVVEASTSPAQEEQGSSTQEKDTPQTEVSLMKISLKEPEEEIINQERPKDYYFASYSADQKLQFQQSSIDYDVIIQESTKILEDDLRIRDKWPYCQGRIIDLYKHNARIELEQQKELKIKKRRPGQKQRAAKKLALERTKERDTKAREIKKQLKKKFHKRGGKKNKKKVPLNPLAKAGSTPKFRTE

[3] = biological target: T3, Sni445-TurboID (S. cerevisiae) (UniProt P53952); test: proximity labelling; TurboID: Sni445-TurboID expressed from the CUP1 promoter in yeast; biotinylated proteins purified on streptavidin beads and identified by MS; enrichment against GFP-TurboID and NLS-GFP-TurboID controls
T3 sequence: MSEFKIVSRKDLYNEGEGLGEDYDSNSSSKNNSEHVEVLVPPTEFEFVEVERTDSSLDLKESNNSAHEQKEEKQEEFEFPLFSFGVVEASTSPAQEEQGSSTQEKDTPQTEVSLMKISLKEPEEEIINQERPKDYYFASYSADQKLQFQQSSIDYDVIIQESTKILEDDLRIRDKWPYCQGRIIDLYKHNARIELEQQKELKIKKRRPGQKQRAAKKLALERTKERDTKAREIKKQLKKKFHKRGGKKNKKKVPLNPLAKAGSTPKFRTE

[4] = biological target: Nop58-FLAG (S. cerevisiae) (UniProt Q12499); test: affinity purification with mass spectrometry; split-tag two-step purification: first Sni445-TAP on IgG Sepharose with TEV elution, then Nop58-FLAG on anti-FLAG M2 agarose with 3x Flag peptide elution; SDS-PAGE, Coomassie, bands identified by MS
[5] = biological target: T2, Sni445-TAP (S. cerevisiae); test: as above
[6] = biological target: T2, Sni445-TAP (S. cerevisiae); test: affinity purification with mass spectrometry; tandem affinity purification of chromosomally TAP-tagged baits from yeast lysate (IgG Sepharose, TEV elution, Calmodulin Sepharose, EGTA elution; 50 mM Tris-HCl pH 7.5, 100 mM NaCl, 1.5 mM MgCl2, 0.075% NP-40); label-free MS, three replicates; Pwp2-TAP and Enp1-TAP also from sni445 deletion strains; remark: listed apart in the source

Measured: binding

Snu13 (from UniProt P39990 1-126)
binds: [1] | [2]

Nop58 (from UniProt Q12499 1-511)
binds: [3] | [1] | [2]

Nop56 (from UniProt Q12460 1-504)
binds: [3] | [4] | [5] | [1] | [2]

Nop1 (from UniProt P15646 1-327) (enzyme)
binds: [3] | [5] | [1] | [2]

B1: Utp5 (protein, UniProt Q04177 1-643)
chain: MDSPVLQSAYDPSGQYLCYVTVALDKQRVGVQPTQRATSSGVDTVWNENFLYLEDSKLKVTCLKWVNLASSDTVAIILGMNNGEIWLYSVLANEVTYKFTTGNSYEIKDIDLMGNQLWCIDSSDAFYQFDLLQFKLLQHFRINNCVQLNKLTIVPAGDSVAQLLVASHSISLIDIEEKKVVMTFPGHVSPVSTLQVITNEFFISGAEGDRFLNVYDIHSGMTKCVLVAESDIKELSHSGQADSIAVTTEDGSLEIFVDPLVSSSTKKRGNKSKKSSKKIQIVSKDGRKVPIYNAFINKDLLNVSWLQNATMPYFKNLQWREIPNEYTVEISLNWNNKNKSADRDLHGKDLASATNYVEGNARVTSGDNFKHVDDAIKSWERELTSLEQEQAKPPQANELLTETFGDKLESSTVARISGKKTNLKGSNLKTATTTGTVTVILSQALQSNDHSLLETVLNNRDERVIRDTIFRLKPALAVILLERLAERIARQTHRQGPLNVWVKWCLIIHGGYLVSIPNLMSTLSSLHSTLKRRSDLLPRLLALDARLDCTINKFKTLNYEAGDIHSSEPVVEEDEDDVEYNEELDDAGLIEDGEESYGSEEEEEGDSDNEEEQKHTSSKQDGRLETEQSDGEEEAGYSDVEME
binds: [1] | [6]

B2: Utp22 (protein, UniProt P53254 1-1237)
chain: MATSVKRKASETSDQNIVKVQKKHSTQDSTTDNGSKENDHSSQAINERTVPEQENDESDTSPESNEVATNTAATRHNGKVTATESYDIHIARETAELFKSNIFKLQIDELLEQVKLKQKHVLKVEKFLHKLYDILQEIPDWEEKSLAEVDSFFKNKIVSVPFVDPKPIPQNTNYKFNYKKPDISLIGSFALKAGIYQPNGSSIDTLLTMPKELFEKKDFLNFRCLHKRSVYLAYLTHHLLILLKKDKLDSFLQLEYSYFDNDPLLPILRISCSKPTGDSLSDYNFYKTRFSINLLIGFPYKVFEPKKLLPNRNCIRIAQESKEQSLPATPLYNFSVLSSSTHENYLKYLYKTKKQTESFVEATVLGRLWLQQRGFSSNMSHSGSLGGFGTFEFTILMAALLNGGGINSNKILLHGFSSYQLFKGVIKYLATMDLCHDGHLQFHSNPENSSSSPASKYIDEGFQTPTLFDKSTKVNILTKMTVSSYQILKEYAGETLRMLNNVVQDQFSNIFLTNISRFDNLKYDLCYDVQLPLGKYNNLETSLAATFGSMERVKFITLENFLAHKITNVARYALGDRIKYIQIEMVGQKSDFPITKRKVYSNTGGNHFNFDFVRVKLIVNPSECDKLVTKGPAHSETMSTEAAVFKNFWGIKSSLRRFKDGSITHCCVWSTSSSEPIISSIVNFALQKHVSKKAQISNETIKKFHNFLPLPNLPSSAKTSVLNLSSFFNLKKSFDDLYKIIFQMKLPLSVKSILPVGSAFRYTSLCQPVPFAYSDPDFFQDVILEFETSPKWPDEITSLEKAKTAFLLKIQEELSANSSTYRSFFSRDESIPYNLEIVTLNILTPEGYGFKFRVLTERDEILYLRAIANARNELKPELEATFLKFTAKYLASVRHTRTLENISHSYQFYSPVVRLFKRWLDTHLLLGHITDELAELIAIKPFVDPAPYFIPGSLENGFLKVLKFISQWNWKDDPLILDLVKPEDDIRDTFETSIGAGSELDSKTMKKLSERLTLAQYKGIQMNFTNLRNSDPNGTHLQFFVASKNDPSGILYSSGIPLPIATRLTALAKVAVNLLQTHGLNQQTINLLFTPGLKDYDFVVDLRTPIGLKSSCGILSATEFKNITNDQAPSNFPENLNDLSEKMDPTYQLVKYLNLKYKNSLILSSRKYIGVNGGEKGDKNVITGLIKPLFKGAHKFRVNLDCNVKPVDDENVILNKEAIFHEIAAFGNDMVINFETD
binds: [4] | [5] | [1] | [6]

B3: Kri1 (protein, UniProt P42846 1-591)
chain: MPRKKSAAKRAREQAKKEAAVPATDTATIKTSETSATTVKPAIEASKSYVPSEDEEEDEEEEEEEDDYGELITDEVENGINQVLDAIKNNKTDKLLDPKVKFFEDPESAAAKLANREGKHKPIYLKDYHRMNILSGDALKEDDEEYEHATVDGKQSFVSQQREEKTQLLNEIKSAFSDEENEESSGDEDDGFLKKKEPSTKKEGKNLPDPTVNEENFLEEFVNQQAWIPKKGDKVISLDLNNNEEDDEEFEDAAEKFENAYNFRYEDPNAAEIISYARSQATLRRSDDSSRRRKREEKRKIKEQIKAEKETALQKKKTKKLNKLTDILEQLTKEYGAEINADMVKKITDTLLKNDFKEEEWDNVVAELFNEEFYQQEGKPTWNEDDEIMGDFYADADGDDQTEEGEVEKEQKEEDEEEGPKRKKSKKEEKLQKKKEKRKVNELVENALEQNKLALIEEVEKEEEERKSRSRTKEEQDLKFRYREVSPESFGLTAREIFAADDTDLNEFIGLKKFAPYRSKELRAKDKRKVMKARRLREWRKKTFKNENGLAPVEAEAGEKDEDTILIPVEKASKSKHKRGHSHKHKGHQKK
binds: [1] | [6]
